No constants are given. Whether binding was seen depends on the method and setting.
Legend:
Experiment in all cases: two-hybrid; array-based Y2H matrix; preys in pACT2 (PJ69-4a) mated against 23 baits in pAS2-1 (PJ69-4α); growth on SD-Leu-Trp-His + 6 mM 3-AT greater than the negative control after 2 weeks
[1] = biological target: T1, Nop13 (Y2H bait, pAS2-1) (S. cerevisiae) (UniProt P53883)
T1 sequence: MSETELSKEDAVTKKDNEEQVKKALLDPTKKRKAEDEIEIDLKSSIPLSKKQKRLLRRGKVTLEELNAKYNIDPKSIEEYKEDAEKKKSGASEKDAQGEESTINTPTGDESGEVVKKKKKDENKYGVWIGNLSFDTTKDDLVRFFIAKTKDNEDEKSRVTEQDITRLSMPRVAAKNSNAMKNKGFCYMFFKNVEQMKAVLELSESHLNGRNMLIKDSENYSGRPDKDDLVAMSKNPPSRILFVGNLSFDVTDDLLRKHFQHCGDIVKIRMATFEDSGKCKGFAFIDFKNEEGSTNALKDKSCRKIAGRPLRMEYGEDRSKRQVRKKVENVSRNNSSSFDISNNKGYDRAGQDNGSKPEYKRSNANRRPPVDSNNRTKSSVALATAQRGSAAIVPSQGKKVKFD

The chains behind the UniProt entries cited, without tags or fusion partners. Where a name states a change or a piece, a line headed by the entry shows the natural chain unless it says otherwise.
UniProt Q03532: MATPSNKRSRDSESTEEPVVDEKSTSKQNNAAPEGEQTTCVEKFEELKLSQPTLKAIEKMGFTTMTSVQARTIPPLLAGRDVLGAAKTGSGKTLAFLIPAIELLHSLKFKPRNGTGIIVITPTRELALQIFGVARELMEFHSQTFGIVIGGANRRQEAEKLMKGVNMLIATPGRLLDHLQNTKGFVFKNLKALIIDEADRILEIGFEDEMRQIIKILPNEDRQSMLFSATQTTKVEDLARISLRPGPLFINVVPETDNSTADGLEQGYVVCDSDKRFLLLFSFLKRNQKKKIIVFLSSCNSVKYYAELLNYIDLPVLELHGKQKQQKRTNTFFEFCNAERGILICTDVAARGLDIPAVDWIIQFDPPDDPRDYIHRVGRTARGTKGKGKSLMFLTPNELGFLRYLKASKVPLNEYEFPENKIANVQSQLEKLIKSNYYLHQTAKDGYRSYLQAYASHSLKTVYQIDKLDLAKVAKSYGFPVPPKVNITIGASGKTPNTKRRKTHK
UniProt P53131: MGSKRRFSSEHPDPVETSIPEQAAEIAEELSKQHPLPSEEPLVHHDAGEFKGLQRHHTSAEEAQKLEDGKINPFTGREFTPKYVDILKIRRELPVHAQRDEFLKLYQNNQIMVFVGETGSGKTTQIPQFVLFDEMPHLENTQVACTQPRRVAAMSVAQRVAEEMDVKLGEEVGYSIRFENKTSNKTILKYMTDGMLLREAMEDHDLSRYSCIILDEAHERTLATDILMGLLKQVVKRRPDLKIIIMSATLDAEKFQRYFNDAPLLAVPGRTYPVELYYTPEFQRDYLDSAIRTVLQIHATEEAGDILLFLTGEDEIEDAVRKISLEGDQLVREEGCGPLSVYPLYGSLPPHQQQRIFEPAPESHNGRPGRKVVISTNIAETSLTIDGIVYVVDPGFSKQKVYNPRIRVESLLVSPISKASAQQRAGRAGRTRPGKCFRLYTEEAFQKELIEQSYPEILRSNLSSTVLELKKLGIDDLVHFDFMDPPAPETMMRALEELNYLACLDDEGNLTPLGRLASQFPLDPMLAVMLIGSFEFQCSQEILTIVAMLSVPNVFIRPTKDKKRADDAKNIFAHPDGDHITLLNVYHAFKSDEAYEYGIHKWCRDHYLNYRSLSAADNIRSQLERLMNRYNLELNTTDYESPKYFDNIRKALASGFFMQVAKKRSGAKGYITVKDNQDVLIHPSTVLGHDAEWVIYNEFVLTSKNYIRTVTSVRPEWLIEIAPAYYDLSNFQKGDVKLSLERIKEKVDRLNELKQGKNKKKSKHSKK
UniProt P40007: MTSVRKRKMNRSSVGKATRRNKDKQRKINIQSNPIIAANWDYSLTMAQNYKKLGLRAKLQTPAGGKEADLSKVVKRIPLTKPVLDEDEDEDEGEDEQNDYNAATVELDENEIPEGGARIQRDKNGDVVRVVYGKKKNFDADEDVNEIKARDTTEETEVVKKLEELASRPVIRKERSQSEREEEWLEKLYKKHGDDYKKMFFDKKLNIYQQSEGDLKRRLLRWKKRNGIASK

[2] = biological target: Has1 (Y2H bait, pAS2-1) (S. cerevisiae) (UniProt Q03532)
[3] = biological target: Prp43 (Y2H bait, pAS2-1) (S. cerevisiae) (UniProt P53131)
[4] = biological target: T2, Nsa2 (Y2H bait, pAS2-1) (S. cerevisiae) (UniProt P40078)
T2 sequence: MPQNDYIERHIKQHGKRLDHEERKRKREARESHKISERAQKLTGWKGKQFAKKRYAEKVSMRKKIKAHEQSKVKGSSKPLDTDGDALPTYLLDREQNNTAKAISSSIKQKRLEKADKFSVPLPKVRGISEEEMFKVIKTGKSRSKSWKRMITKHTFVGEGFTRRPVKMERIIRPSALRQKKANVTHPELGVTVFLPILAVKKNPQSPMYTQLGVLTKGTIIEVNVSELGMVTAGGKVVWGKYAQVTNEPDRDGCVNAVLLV

[5] = biological target: T3, Nsr1 (Y2H bait, pAS2-1) (S. cerevisiae) (UniProt P27476)
T3 sequence: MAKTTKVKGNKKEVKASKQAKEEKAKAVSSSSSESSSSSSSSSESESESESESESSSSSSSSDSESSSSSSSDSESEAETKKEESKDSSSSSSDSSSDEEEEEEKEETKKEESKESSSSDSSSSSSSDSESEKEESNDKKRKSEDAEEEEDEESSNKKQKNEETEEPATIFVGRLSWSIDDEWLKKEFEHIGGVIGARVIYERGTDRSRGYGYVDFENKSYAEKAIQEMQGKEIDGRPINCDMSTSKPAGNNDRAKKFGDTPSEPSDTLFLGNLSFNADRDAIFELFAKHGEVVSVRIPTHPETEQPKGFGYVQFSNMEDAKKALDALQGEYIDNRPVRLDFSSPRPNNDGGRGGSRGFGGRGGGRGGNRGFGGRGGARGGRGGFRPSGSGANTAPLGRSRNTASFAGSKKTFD

[6] = biological target: Nop16 (Y2H bait, pAS2-1) (S. cerevisiae) (UniProt P40007)
[7] = biological target: T4, Nop12 (Y2H bait, pAS2-1) (S. cerevisiae) (UniProt Q08208)
T4 sequence: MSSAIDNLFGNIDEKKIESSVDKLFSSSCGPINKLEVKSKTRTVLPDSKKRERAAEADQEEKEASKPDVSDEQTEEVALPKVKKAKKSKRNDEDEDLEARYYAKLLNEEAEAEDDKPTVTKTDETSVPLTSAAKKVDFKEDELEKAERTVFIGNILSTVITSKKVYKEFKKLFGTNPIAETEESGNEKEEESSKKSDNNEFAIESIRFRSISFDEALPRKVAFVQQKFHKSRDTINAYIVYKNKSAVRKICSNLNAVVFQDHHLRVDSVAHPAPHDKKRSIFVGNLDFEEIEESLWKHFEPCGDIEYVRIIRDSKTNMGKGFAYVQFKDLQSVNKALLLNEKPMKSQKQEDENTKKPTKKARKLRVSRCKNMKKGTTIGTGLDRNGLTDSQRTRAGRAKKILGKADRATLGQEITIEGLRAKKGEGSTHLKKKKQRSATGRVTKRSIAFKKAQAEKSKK

Measured: binding

B1: Nop4 RRM 1–2 (Y2H prey, pACT2) (domain or fragment, UniProt P37838 1-250)
chain: MEETIENVEVPSSNVSKQNDDGLDMKTLFVRSIPQDVTDEQLADFFSNFAPIKHAVVVKDTNKRSRGFGFVSFAVEDDTKEALAKARKTKFNGHILRVDIAKRRDRSKKTSEVVEKSTPESSEKITGQNNEDEDDADGEDSMLKGKPKLIIRNMPWSCRDPVKLKKIFGRYGTVVEATIPRKRDGKLCGFAFVTMKKISNCRIALENTKDLKIDGRKVAVDFAVQKNRWEDYKKAQPEMNDKDDNESGNE
no binding: all assays above

From paper PMC4859800
